This is an account of results in paper PMC8591507, “Progesterone receptor membrane component 1 (PGRMC1) binds and stabilizes cytochromes P450 through a heme-independent mechanism” (The Journal of Biological Chemistry, 2021).

Amino acid sequences for entries named in this document (tags omitted). A change or cut given only in a name is not applied to a line headed by its entry.
UniProt O55022: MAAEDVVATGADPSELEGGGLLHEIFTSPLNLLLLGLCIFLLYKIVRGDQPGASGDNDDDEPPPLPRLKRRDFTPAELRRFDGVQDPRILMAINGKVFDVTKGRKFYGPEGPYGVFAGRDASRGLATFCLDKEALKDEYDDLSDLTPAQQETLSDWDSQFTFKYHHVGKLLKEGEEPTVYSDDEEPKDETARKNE
UniProt Q64458: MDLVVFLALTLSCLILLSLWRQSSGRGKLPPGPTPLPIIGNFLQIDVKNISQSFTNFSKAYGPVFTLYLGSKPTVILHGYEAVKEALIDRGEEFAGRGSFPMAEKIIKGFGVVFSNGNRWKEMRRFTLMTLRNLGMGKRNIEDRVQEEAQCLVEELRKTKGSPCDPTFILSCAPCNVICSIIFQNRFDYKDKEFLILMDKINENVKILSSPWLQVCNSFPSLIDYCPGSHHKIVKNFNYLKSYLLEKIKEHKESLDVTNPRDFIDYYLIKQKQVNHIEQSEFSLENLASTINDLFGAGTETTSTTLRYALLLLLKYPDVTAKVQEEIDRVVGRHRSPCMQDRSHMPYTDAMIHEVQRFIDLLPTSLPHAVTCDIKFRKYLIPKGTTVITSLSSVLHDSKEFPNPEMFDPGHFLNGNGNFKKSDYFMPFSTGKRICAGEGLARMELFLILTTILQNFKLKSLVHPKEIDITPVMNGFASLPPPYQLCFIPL
UniProt Q05421: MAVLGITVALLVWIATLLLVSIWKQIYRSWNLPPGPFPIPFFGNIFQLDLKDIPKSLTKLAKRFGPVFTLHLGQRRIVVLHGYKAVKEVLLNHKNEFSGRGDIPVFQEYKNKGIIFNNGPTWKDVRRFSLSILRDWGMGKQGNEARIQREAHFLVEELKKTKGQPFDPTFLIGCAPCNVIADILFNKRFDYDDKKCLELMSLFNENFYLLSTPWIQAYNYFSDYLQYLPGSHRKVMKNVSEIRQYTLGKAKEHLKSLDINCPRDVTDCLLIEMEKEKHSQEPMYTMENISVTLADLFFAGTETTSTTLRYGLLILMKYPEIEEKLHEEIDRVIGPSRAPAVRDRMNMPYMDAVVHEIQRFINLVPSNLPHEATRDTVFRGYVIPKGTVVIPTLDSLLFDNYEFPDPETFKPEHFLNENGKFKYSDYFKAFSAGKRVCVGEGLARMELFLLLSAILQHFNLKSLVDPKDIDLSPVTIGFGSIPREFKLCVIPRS

Where two headings read alike, the source gives them in different places. No constants are given. Whether binding was seen depends on the method and setting. Binding seen in cells or lysates may run through a third protein. Here binding means that the protein was enriched with, or labelled near, the bait; the list need not be complete.

What all share (experiment): affinity purification with mass spectrometry; Flag-M2 agarose on DDM-solubilized liver membrane fractions of Pgrmc1 KO mice infected with AAV8 GFP, Flag-Pgrmc1 or Y113F Flag-Pgrmc1; 1 h at 4 °C; eluates TMT-labelled; candidates have a fold change ≥20% against the GFP control
Assay [1] has as its target Y113F Flag-Pgrmc1 (murine) (mouse) (UniProt O55022).
Assay [2] deals with Flag-Pgrmc1 (murine progesterone receptor membrane component 1) (mouse) (UniProt O55022).
For assay [3], the target named is Y113F Flag-Pgrmc1 (murine) (mouse) (UniProt O55022). This is another data set of the same source.
In assay [4] the target is Flag-Pgrmc1 (murine progesterone receptor membrane component 1) (mouse) (UniProt O55022). The source holds these as a separate data set.

Consider Cyp2c29 (from UniProt Q64458) (enzyme), for which the binding result in assay [1] and in assay [2] was “binds” each time.

Consider “Cyp2e1 (from UniProt Q05421 1-493) (enzyme)”, for which the binding entry in assay [1] and in assay [2] was “binds” in each case.

B1: Cyp2f2 (enzyme, UniProt P33267 1-491)
chain: MDGVSTAILLLLLAVISLSLTFSSRGKGQLPPGPKPLPILGNLLQLRSQDLLTSLTKLSKEYGSVFTVYLGSRPVIVLSGYQTVKEALVDKGEEFSGRGAYPVFFNFTRGNGIAFSDGERWKILRRFSVQILRNFGMGKRSIEERILEEGSFLLEVLRKMEGKPFDPVFILSRSVSNIICSVVFGSRFDYDDERLLTIIHFINDNFKIMSSPWGEMYNIFPSVLDWIPGPHKRLFRNFGGMKDLIARSVREHQDSLDPNSPRDFIDCFLTKMAQEKQDPLSHFNMDTLLMTTHNLLFGGTETVGTTLRHAFLILMKYPKVQARVQEEIDRVVGRSRMPTLEDRTSMPYTDAVIHEVQRFADVIPMNLPHRVTRDTPFRGFLIPKGTDVITLLNTVHYDSDQFKTPQEFNPEHFLDDNHSFKKSPAFMPFSAGRRLCLGEPLARMELFIYFTSILQNFTLQPLVDPEDIDLTPLSSGLGNLPRPFQLCMHIR
With B1, the binding result in assay [3] and in assay [4] was “binds” in each case.

B2: Cyp2j5 (enzyme, UniProt O54749 1-501)
chain: MIMFLSSLVTTFWEALHLKTLVLAVVTFLFLINILRSRHPKNYPPGPWRLPFVGNFFQIDTKQTHLVLQQFVKKYGNVFSLELGQSPVVVVSGLPLIKEMFTHLDQNFVNRFMTPVRERITGKNGLVVSNGQTWKEQRRLALMALRNFGLGKKSLEERIQEETHHLVEAIREEGGQPFNPHLKLINAVSNIICSVTFGERFDYEDCQFQELLQLLDETMHLMGSSAGQLYNGFPCIMKYLPGPHQKIFRNWGKLKLFVSHIVKKHEKDWNPDEPRDFIDAFLIEMQKDPDRTTSFNEENLISTTLDLFLGGTETTSSTLRWALLYMSSYPEIQENVQAEIDRVIGHKRQVSLSDRESMPYTNAVIHEVQRMGNIVPLNSSREVTVDTKFNGFHLPKGTMILTNLTALHRDPKEWATPEVFNPEHFLENGQFKKRESFLPFSMGKRACLGEQLAKSELFIFFSALMQKFTFKPPINEKLSLKFRMGLILSPASYRICAIPRV
Turning to B2, the binding entry in assay [3] and in assay [4] was “binds” throughout.

B3: lathosterol oxidase (enzyme, UniProt O88822 1-299)
chain: MDLVLSAADYYFFTPYVYPATWPEDNIIRQTISLLIVTNLGAYILYFFCATLSYYFVYDHSLMKHPQFLKNQVSREIVFTVKSLPWISIPTVSLFLLELRGYSKLYDDIGDFPNGWIHLMVSVVSFLFFTDMLIYWIHRGLHHRLVYKRIHKPHHIWKIPTPFASHAFHPVDGFLQSLPYHIYPFVFPLHKVVYLGLYVLVNVWTISIHDGDFRVPQILRPFINGSAHHTDHHMFFDYNYGQYFTLWDRIGGSFKHPSSFEGKGPHSYVKNMTEKESNSFAENGCKGKKVGNGEFTKNK
With B3, the binding result in assay [4] is given as “binds”.

B4: Cyp51a (enzyme, UniProt Q8K0C4 1-503)
chain: MVLLGLLQSGGWVLGQAMEQVTGGNLLSTLLIACAFTLSLVYLFRLAVGHMVQLPAGAKSPPHIYSPIPFLGHAIAFGKSPIEFLENAYEKYGPVFSFTMVGKTFTYLLGSDAAALLFNSKNEDLNAEEVYGRLTTPVFGKGVAYDVPNAIFLEQKKIIKSGLNIAHFKQYVPIIEKEAKEYFQSWGESGERNVFEALSELIILTASHCLHGKEIRSQLNEKVAQLYADLDGGFTHAAWLLPAWLPLPSFRRRDRAHREIKNIFYKAIQKRRLSKEPAEDILQTLLDSTYKDGRPLTDEEISGMLIGLLLAGQHTSSTTSAWMGFFLAKDKPLQEKCYLEQKAVCGEDLPPLTYDQLKDLNLLDRCIKETLRLRPPIMTMMRMAKTPQTVAGYTIPPGHQVCVSPTVNQRLKDSWAERLDFNPDRYLQDNPASGEKFAYVPFGAGRHRCVGENFAYVQIKTIWSTMLRLYEFDLINGYFPTVNYTTMIHTPENPVIRYKRRSK
Consider B4, for which the binding entry in assay [3] and in assay [4] was “binds” in each case.

B5: PGRMC2 (progesterone receptor membrane component 2) (protein, UniProt Q80UU9 1-217)
chain: MAAGDGDVKLSTLGSGGESGGDGSPGGAGATAARSSWVAALLATGGEMLLNVALVALVLLGAYRLWVRWGRRGLCSGPGAGEESPAATLPRMKKRDFSLEQLRQYDGARTPRILLAVNGKVFDVTKGSKFYGPAGPYGIFAGRDASRGLATFCLDKDALRDEYDDLSDLNAVQMESVREWEMQFKEKYDYVGRLLKPGEEPSEYTDEEDTKDHSKQD
For the molecule B5, in assay [4], the binding result was “binds”.

B6: Cyp1a2 (enzyme, UniProt P00186 1-513)
chain: MAFSQYISLAPELLLATAIFCLVFWMVRASRTQVPKGLKNPPGPWGLPFIGHMLTVGKNPHLSLTRLSQQYGDVLQIRIGSTPVVVLSGLNTIKQALVRQGDDFKGRPDLYSFTLITNGKSMTFNPDSGPVWAARRRLAQDALKSFSIASDPTSASSCYLEEHVSKEANHLVSKLQKAMAEVGHFEPVSQVVESVANVIGAMCFGKNFPRKSEEMLNIVNNSKDFVENVTSGNAVDFFPVLRYLPNPALKRFKTFNDNFVLFLQKTVQEHYQDFNKNSIQDITSALFKHSENYKDNGGLIPEEKIVNIVNDIFGAGFDTVTTAITWSILLLVTWPNVQRKIHEELDTVVGRDRQPRLSDRPQLPYLEAFILEIYRYTSFVPFTIPHSTTRDTSLNGFHIPKERCIYINQWQVNHDEKQWKDPFVFRPERFLTNNNSAIDKTQSEKVMLFGLGKRRCIGEIPAKWEVFLFLAILLQHLEFSVPPGVKVDLTPNYGLTMKPGTCEHVQAWPRFSK
For the molecule B6, the binding entry in assay [3] and in assay [4] was “binds” in each case.

B7: Cyp3a13 (enzyme, UniProt Q64464 1-503)
chain: MDLIPNFSMETWMLLATSLVLLYLYGTHSHGIFKKLGIPGPKPLPFLGTILAYQKGFWECDIQCHKKYGKMWGLYDGRQPVLAITDPDIIKTVLVKECYSTFTNRRRFGPVGILKKAISISENEEWKRIRALLSPTFTSGRLKEMFPIINQFTDVLVRNMRQGLGEGKPTSMKDIFGAYSMDVITATSFGVNIDSLNNPQDPFVEKIKKLLKFDIFDPLFLSVTLFPFLTPVFDALNVSLFPRDVISFFTTSVERMKENRMKEKEKQRVDFLQLMINSQNYKTKESHKALSDVEIVAQSVIFIFAGYETTSSALSFALYLLAIHPDVQKKLQDEIDAALPNKAPATYDTLLQMEYLDMVVNETLRLYPIAGRLERVCKTDVEINGLFIPKGTVVMIPTFALHKDPKYWPEPEEFRPERFSKKNQDSINPYMYLPFGSGPRNCIGMRFALINMKVALVRVLQNFTVQPCKETEIPLKLSKQGLLQPENPLLLKVVSRDETVSDE
Regarding B7, the binding result in assay [4] is given as “binds”.

B8: BAP31 (protein, UniProt Q61335 1-245)
chain: MSLQWTTVATFLYAEVFAVLLLCIPFISPKRWQKVFKSRLVELVVTYGNTFFVVLIVILVLLVIDAVREILKYDDVTEKVNLQNNPGAMEHFHMKLFRAQRNLYIAGFSLLLSFLLRRLVTLISQQATLLASNEAFKKQAESASEAAKKYMEENDQLKKGAAEDGDKLDIGNTEMKLEENKSLKNDLRKLKDELASTKKKLEKAENEALAMQKQSEGLTKEYDRLLEEHAKLQASVRGPSVKKEE
Consider B8, for which the binding result in assay [4] was “binds”.

B9: ferrochelatase (Fech) (enzyme, UniProt P22315 54-422)
chain: TTKPQAQPERRKPKTGILMLNMGGPETLGEVQDFLQRLFLDRDLMTLPIQNKLAPFIAKRRTPKIQEQYRRIGGGSPIKMWTSKQGEGMVKLLDELSPATAPHKYYIGFRYVHPLTEEAIEEMERDGLERAIAFTQYPQYSCSTTGSSLNAIYRYYNEVGQKPTMKWSTIDRWPTHPLLIQCFADHILKELNHFPEEKRSEVVILFSAHSLPMSVVNRGDPYPQEVGATVHKVMEKLGYPNPYRLVWQSKVGPVPWLGPQTDEAIKGLCERGRKNILLVPIAFTSDHIETLYELDIEYSQVLAQKCGAENIRRAESLNGNPLFSKALADLVHSHIQSNKLCSTQLSLNCPLCVNPVCRKTKSFFTSQQL
Take B9: the binding result in assay [4] is given as “binds”.

B10: Cyp3a11 (enzyme, UniProt Q64459 1-504)
chain: MDLVSALSLETWVLLAISLVLLYRYGTRKHELFKKQGIPGPKPLPFLGTVLNYYKGLWKFDMECYKKYGKTWGLFDGQTPLLAVTDPETIKNVLVKECFSVFTNRRDFGPVGIMSKAISISKDDEWKRYRALLSPTFTSGKLKEMFPVIEQYGDILVKYLRQKAKKGKPVTMKDVLGAYSMDVITSTSFGVNVDSLNNPEDPFVEKAKKLLRFDFFDPLLFSVVLFPFLTPVYEMLNICMFPKDSIEFFKKFVDRMKESRLDSKQKHRVDFLQLMMNSHNNSKDKVSHKALSDMEITAQSIIFIFAGYETTSSTLSFTLHSLATHPDIQKKLQDEIDEALPNKAPPTYDTVMEMEYLDMVLNETLRLYPIANRLERVCKKDVELNGVYIPKGSTVMIPSYALHHDPQHWSEPEEFQPERFSKENKGSIDPYVYLPFGNGPRNCLGMRFALMNMKLALTKIMQNFSFQPCKETQIPLKLSRQGLLQPEKPIVLKVVPRDAVITGA
Turning to B10, the binding entry in assay [3] and in assay [4] was “binds” in each case.

B11: Cyp7b1 (enzyme, UniProt Q60991 1-507)
chain: MQGATTLDAASPGPLALLGLLFAATLLLSALFLLTRRTRRPREPPLIKGWLPYLGMALKFFKDPLTFLKTLQRQHGDTFTVFLVGKYITFVLNPFQYQYVTKNPKQLSFQKFSSRLSAKAFSVKKLLTDDDLNEDVHRAYLLLQGKPLDALLETMIQEVKELFESQLLKITDWNTERIFAFCGSLVFEITFATLYGKILAGNKKQIISELRDDFFKFDDMFPYLVSDIPIQLLRNEESMQKKIIKCLTSEKVAQMQGQSKIVQERQDLLKRYYRHDDPEIGAHHLGFLWASLANTIPAMFWAMYYILRHPEAMEALRDEIDSFLQSTGQKKGPGISVHFTREQLDSLVCLESTILEVLRLCSYSSIIREVQEDMNLSLESKSFSLRKGDFVALFPPLIHNDPEIFDAPKEFRFDRFIEDGKKKSTFFKGGKKLKTYVMPFGLGTSKCPGRYFAVNEMKLLLIMLLTYFDLEIIDRKPIGLNHSRMFLGIQHPDSAVSFRYKAKSWRS
Regarding B11, the binding entry in assay [4] is “binds”.
